According to the supplement of paper PMC10849652:
Some of the results follow.

Sequences of proteins named here, by UniProt entry; tags and fusion partners are left off. A change or cut given only in a name is not applied to a line headed by its entry.
UniProt Q969V3: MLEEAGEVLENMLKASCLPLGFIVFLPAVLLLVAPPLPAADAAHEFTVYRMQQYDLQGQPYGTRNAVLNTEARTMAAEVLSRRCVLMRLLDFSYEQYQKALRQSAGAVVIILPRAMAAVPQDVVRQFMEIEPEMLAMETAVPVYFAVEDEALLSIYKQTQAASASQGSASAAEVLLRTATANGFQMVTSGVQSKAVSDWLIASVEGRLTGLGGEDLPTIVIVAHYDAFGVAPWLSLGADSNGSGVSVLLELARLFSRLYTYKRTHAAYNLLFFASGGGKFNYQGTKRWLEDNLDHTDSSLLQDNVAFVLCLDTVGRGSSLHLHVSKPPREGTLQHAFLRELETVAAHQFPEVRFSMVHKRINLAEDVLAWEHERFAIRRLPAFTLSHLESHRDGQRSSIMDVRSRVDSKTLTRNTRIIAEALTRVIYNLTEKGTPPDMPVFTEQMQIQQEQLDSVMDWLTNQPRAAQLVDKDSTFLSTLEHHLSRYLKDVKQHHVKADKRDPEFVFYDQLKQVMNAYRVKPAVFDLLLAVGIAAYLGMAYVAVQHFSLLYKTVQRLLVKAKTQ
UniProt Q5VVJ2: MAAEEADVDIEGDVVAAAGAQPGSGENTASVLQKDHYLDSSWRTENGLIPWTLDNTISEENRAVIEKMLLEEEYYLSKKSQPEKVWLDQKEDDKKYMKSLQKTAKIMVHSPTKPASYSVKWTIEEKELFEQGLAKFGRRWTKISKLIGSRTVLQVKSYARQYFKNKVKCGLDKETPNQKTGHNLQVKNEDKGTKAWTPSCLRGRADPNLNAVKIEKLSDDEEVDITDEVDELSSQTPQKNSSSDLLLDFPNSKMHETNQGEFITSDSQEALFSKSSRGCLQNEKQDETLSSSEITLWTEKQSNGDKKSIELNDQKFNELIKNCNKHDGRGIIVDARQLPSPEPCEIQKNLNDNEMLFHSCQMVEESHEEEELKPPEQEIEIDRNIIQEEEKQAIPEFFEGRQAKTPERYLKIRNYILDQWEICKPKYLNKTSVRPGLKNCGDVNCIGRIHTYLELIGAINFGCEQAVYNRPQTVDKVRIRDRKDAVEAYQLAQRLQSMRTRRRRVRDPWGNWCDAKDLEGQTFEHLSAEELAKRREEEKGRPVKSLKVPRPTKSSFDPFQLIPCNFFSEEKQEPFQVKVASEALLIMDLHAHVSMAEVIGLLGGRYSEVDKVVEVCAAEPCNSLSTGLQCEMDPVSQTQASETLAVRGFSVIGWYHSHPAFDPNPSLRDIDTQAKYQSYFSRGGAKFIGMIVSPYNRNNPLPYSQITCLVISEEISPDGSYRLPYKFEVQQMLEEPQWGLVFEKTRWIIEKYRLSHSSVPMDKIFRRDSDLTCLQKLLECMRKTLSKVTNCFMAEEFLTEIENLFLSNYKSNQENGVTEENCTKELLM
UniProt P61599, whole entry, looked up: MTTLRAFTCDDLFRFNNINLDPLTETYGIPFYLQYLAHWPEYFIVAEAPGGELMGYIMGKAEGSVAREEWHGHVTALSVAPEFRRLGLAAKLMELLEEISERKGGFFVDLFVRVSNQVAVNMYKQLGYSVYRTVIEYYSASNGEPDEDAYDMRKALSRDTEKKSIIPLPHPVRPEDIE
UniProt Q8TBE9: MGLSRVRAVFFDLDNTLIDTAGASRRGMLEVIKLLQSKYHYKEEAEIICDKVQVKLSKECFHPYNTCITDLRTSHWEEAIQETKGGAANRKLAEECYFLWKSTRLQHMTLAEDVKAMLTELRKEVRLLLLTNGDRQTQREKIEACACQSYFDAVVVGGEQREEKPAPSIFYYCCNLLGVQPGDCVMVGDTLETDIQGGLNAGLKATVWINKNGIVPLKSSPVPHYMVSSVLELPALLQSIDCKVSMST
UniProt Q9UBB6: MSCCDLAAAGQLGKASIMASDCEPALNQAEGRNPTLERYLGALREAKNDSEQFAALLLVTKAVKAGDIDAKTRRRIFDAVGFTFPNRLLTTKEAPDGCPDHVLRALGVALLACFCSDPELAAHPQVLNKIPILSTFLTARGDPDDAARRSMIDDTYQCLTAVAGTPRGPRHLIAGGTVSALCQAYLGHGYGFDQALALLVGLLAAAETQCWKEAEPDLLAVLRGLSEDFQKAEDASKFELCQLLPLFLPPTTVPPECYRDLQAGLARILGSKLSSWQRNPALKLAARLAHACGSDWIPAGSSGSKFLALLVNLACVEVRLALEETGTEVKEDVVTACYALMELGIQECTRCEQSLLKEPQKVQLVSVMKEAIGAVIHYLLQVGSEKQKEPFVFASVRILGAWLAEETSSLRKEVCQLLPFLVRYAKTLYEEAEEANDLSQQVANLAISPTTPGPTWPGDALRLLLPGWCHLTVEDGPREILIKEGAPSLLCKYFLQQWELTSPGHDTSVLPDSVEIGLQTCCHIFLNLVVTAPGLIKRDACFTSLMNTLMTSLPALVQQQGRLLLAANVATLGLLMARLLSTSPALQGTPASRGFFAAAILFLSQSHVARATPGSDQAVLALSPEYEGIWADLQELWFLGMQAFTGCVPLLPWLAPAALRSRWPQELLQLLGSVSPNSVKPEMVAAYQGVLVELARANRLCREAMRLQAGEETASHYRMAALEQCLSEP
UniProt Q86UW6: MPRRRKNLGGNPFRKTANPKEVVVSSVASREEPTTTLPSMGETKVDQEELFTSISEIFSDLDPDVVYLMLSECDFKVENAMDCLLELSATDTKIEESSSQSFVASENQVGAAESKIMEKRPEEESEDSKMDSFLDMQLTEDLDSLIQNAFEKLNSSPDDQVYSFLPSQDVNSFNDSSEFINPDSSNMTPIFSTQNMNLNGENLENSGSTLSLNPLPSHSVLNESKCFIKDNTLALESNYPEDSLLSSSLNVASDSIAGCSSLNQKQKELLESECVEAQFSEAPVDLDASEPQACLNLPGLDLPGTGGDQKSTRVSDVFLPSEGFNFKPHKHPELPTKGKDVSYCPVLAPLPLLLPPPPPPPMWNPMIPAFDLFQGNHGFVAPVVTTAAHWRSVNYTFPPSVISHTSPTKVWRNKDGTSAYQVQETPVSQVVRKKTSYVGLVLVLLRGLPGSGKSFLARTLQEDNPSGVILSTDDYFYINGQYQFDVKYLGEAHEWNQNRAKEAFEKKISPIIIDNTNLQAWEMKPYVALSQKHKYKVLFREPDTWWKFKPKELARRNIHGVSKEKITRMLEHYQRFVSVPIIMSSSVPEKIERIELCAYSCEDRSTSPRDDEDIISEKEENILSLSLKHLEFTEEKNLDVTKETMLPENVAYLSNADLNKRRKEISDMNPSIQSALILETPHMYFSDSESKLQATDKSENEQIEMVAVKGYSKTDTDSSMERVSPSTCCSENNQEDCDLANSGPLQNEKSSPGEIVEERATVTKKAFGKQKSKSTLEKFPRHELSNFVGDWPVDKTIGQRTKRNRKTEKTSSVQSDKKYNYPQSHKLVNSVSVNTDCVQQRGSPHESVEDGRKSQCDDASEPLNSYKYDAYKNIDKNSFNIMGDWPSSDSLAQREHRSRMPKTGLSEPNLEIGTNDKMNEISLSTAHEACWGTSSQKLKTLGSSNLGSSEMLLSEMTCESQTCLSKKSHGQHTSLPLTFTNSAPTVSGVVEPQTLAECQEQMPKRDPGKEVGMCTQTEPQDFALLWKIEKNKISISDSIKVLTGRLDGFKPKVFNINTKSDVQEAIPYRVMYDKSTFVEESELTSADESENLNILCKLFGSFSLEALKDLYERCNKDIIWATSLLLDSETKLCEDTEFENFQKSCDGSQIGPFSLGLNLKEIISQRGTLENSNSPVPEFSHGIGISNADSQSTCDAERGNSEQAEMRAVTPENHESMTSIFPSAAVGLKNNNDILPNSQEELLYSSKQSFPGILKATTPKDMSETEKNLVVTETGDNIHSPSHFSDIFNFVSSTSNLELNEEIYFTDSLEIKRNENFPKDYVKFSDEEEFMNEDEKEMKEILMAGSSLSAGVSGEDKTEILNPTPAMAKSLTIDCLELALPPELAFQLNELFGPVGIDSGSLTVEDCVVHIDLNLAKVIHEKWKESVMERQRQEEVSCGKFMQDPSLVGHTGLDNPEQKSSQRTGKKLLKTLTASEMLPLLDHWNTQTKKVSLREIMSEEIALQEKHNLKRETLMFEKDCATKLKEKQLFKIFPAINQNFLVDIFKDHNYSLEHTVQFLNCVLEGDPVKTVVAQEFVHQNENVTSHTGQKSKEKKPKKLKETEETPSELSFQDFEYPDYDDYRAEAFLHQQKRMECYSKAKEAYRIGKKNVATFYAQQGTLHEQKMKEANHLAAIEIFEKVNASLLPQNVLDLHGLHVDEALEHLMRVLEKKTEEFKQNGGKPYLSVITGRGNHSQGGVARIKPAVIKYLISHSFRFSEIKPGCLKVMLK
UniProt O94832: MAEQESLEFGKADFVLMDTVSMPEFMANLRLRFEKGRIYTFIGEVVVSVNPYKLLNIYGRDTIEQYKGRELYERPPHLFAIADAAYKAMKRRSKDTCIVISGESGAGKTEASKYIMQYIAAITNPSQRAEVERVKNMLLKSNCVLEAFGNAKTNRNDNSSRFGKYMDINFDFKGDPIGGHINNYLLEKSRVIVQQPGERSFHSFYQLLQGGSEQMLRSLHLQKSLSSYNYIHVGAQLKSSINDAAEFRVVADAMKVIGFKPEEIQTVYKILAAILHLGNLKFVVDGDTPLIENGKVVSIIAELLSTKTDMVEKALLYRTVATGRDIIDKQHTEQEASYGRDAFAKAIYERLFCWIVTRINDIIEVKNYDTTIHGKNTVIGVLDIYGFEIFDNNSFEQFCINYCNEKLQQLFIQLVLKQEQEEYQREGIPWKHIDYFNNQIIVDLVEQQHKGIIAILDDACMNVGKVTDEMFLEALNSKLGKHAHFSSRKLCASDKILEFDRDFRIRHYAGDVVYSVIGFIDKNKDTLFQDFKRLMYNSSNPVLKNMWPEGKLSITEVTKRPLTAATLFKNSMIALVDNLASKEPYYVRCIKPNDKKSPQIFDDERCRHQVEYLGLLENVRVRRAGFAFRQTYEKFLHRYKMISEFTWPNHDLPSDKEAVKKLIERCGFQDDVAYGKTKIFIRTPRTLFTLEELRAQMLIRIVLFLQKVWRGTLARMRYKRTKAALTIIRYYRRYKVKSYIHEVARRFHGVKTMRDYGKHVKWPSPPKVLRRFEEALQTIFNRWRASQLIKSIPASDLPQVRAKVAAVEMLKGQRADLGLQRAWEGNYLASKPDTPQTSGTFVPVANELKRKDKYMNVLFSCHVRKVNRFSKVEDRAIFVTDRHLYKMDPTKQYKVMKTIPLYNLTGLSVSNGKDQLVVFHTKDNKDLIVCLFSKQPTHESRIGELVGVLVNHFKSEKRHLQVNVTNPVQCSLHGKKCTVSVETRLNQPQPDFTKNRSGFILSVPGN
UniProt O43639, whole entry, looked up: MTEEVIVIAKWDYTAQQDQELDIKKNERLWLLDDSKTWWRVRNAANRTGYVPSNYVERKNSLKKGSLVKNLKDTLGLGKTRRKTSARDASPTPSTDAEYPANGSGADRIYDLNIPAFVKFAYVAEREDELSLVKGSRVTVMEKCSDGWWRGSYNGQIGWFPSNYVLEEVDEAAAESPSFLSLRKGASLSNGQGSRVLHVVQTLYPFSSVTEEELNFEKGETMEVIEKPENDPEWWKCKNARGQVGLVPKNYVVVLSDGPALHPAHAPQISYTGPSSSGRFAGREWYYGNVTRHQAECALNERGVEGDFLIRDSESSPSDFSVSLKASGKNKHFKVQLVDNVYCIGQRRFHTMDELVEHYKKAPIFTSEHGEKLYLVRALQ
UniProt P55209: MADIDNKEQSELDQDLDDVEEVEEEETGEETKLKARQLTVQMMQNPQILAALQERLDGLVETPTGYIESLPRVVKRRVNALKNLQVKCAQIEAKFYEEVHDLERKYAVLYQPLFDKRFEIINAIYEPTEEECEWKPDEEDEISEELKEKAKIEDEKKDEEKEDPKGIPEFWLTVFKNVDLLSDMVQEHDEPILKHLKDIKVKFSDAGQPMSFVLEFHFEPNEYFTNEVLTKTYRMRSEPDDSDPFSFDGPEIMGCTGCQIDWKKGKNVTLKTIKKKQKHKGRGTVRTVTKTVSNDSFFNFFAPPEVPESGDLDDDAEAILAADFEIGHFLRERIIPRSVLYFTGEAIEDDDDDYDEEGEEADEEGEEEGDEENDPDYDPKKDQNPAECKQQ
UniProt P60660, whole entry, looked up: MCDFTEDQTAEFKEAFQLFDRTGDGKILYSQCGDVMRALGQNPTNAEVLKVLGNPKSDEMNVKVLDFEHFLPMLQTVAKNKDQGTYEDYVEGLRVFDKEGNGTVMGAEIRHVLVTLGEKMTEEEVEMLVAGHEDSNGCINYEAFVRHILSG
UniProt Q8NCW5: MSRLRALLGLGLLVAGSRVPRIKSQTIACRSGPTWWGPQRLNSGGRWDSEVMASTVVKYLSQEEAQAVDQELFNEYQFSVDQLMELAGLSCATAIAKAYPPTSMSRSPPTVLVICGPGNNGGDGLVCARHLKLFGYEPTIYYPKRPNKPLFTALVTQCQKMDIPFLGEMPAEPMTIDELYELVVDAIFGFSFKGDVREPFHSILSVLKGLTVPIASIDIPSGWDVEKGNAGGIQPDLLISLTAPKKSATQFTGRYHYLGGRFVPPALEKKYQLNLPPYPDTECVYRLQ

Assays:
Test in all cases: log2 fold change, soluble protein after heating vs DMSO (PISA); higher = thermal stabilisation; K562 lysate, 10 uM; active = over 0.2 and 3.5 SD of the protein, either way, in both replicates (recomputed)
erlotinib = compound: C#Cc1cccc(Nc2ncnc3cc(OCCOC)c(OCCOC)cc23)c1 [erlotinib]
Procedure, shortened: (§1)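 Following dounce homogenisation of K562 pellets in PBS pH 7.4 with 1 mM MgCl2, crude extract at 1 mg/mL protein was incubated for 30 min with 10 μM compound. Aliquots were then heated for 3 min over 48°C-58°C and pooled, NP-40 was added to 0.5% at 4°C, and soluble protein was recovered as the supernatant at 21,000xg for 90 min. Channel-sum-equalised TMTpro 16plex LC-MS/MS quantified this protein. Each value, from duplicates, is a log-two fold change in thermal stability relative to solvent controls.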

[1] = compound: C/C(=N\NC(=O)C1=CC(=CC=C1)S(=O)(=O)N2CCOCC2)/C3=C(C=CC(=C3)Cl)O
Procedure, shortened: as §1

[2] = compound: C1=CC(=CC=C1C2=NC3=C(N2)C=C(C=C3)C(=O)N)OC4=CC=C(C=C4)Cl
Procedure, shortened: as §1

[3] = compound: C1=CC2=C(C=CC(=C2)/C=C\3/C(=O)NC(=NCC4=CC=CS4)S3)N=C1
Procedure, shortened: as §1

[4] = compound: C1=CC2=NC=CN=C2C=C1/C=C/3\C(=O)NC(=O)S3
Procedure, shortened: as §1

[5] = compound: C1=CC=C(C=C1)C2=NC(=C(N2)C3=CC=NC=C3)C4=CC(=C(C=C4)Cl)O
Procedure, shortened: as §1

[6] = compound: C1=CC=C2C(=C1)C3=NNC4=CC=CC(=C43)C2=O
Procedure, shortened: as §1

[7] = compound: C1CCN(C1)C(=O)NC2=CC=CC(=C2)NC3=NC=C(C(=N3)NCCC4=CN=CN4)Br
Procedure, shortened: as §1

[8] = compound: C1CN(CCC1(CC2=CC=C(C=C2)Cl)N)C3=NC=NC4=C3C=CN4
Procedure, shortened: as §1

IRAK-1-4 Inhibitor I = compound: C1COCCN1CCN2C3=CC=CC=C3N=C2NC(=O)C4=CC(=CC=C4)[N+](=O)[O-] [IRAK-1-4 Inhibitor I]
Procedure, shortened: as §1

ibrutinib = compound: C=CC(=O)N1CCC[C@@H](n2nc(-c3ccc(Oc4ccccc4)cc3)c3c(N)ncnc32)C1 [ibrutinib]
Procedure, shortened: as §1

[9] = compound: CC(=O)c1cnc2ccc(-c3cc(Cl)c(O)c(Cl)c3)nc2c1N[C@H]1CC[C@H](CN(C)C)CC1
Procedure, shortened: as §1

ralimetinib = compound: CC(C)(C)Cn1c(N)nc2ccc(-c3[nH]c(C(C)(C)C)nc3-c3ccc(F)cc3)nc21 [ralimetinib]
Procedure, shortened: as §1

[10] = compound: CC(C)(O)CC(=O)NCCn1ccc2ncnc(Nc3ccc(Oc4cccc(C(F)(F)F)c4)c(Cl)c3)c21
Procedure, shortened: as §1

[11] = compound: CC(C)C1=C2N=C(C=C(N2N=C1)NCC3=CC=CC=C3)NCCCCCCN
Procedure, shortened: as §1

[12] = compound: CC1=C(C(CC(=O)N1)C2=CC=C(C=C2)C(F)(F)F)C(=O)NC3=C(C=C4C(=C3)C=NN4)F
Procedure, shortened: as §1

[13] = compound: CC1=C(C2=C(C=C1)C(=O)C3=CC=CC=C3N2CCCN)C
Procedure, shortened: as §1

[14] = compound: CC1=C(C=C(C=C1)NC(=O)C2=CC(=CC=C2)C(C)(C)C#N)NC3=CC4=C(C=C3)N=CN(C4=O)C
Procedure, shortened: as §1

[15] = compound: CC1=C(C=C(C=C1)NC(=O)C2=CC(=CC=C2)N(C)C)NC(=O)C3=CC=C(C=C3)O
Procedure, shortened: as §1

[16] = compound: CC1=CC=C(C=C1)SC2=C3C=C(SC3=CN=C2)C(=O)N
Procedure, shortened: as §1

Measured: log2 fold change

NCLN (UniProt Q969V3)
inactive: erlotinib 0.011 | [1] -0.014 | [2] -0.058 | [3] 0.003 | [4] -0.014 | [5] 0.007 | [6] -0.025 | [7] -0.01 | [8] 0.015 | IRAK-1-4 Inhibitor I 0.014 | ibrutinib 0.006 | [9] -0.005 | ralimetinib 0.029 | [10] -0.037 | [11] -0.012 | [12] 0.025 | [13] 0.013 | [14] -0.009 | [15] 0.008 | [16] -0.008

NCAPH2 (UniProt Q6IBW4)
inactive: erlotinib -0.031 | [1] -0.085 | [2] 0.011 | [3] -0.012 | [4] 0.026 | [5] 0 | [6] -0.005 | [7] -0.038 | [8] 0.042 | IRAK-1-4 Inhibitor I 0.009 | ibrutinib -0.033 | [9] -0.01 | ralimetinib 0.066 | [10] -0.091 | [11] 0.028 | [12] -0.017 | [13] 0 | [14] 0.01 | [15] 0.055 | [16] 0.011

NCAPG (UniProt Q9BPX3)
inactive: erlotinib -0.008 | [1] -0.018 | [2] -0.004 | [3] -0.01 | [4] -0.007 | [5] 0.006 | [6] -0.026 | [7] 0.002 | [8] 0.013 | IRAK-1-4 Inhibitor I -0.011 | ibrutinib 0.006 | [9] 0.015 | ralimetinib 0.027 | [10] -0.015 | [11] -0.026 | [12] -0.009 | [13] -0.02 | [14] 0.014 | [15] 0.018 | [16] 0.024

NAE1 (UniProt Q13564)
inactive: erlotinib -0.005 | [1] -0.006 | [2] 0.02 | [3] -0.019 | [4] -0.004 | [5] 0.013 | [6] -0.008 | [7] -0.004 | [8] -0.006 | IRAK-1-4 Inhibitor I 0.01 | ibrutinib -0.023 | [9] 0.045 | ralimetinib 0.022 | [10] -0.014 | [11] 0.013 | [12] -0.007 | [13] 0.035 | [14] -0.013 | [15] -0.004 | [16] -0.014

MYSM1 (UniProt Q5VVJ2)
inactive: erlotinib 0.039 | [1] -0.043 | [2] -0.018 | [3] 0.031 | [4] -0.025 | [5] -0.017 | [6] -0.026 | [7] -0.047 | [8] 0.009 | IRAK-1-4 Inhibitor I -0.052 | ibrutinib -0.007 | [9] 0.005 | ralimetinib -0.01 | [10] -0.019 | [11] -0.018 | [12] -0.08 | [13] -0.01 | [14] 0.028 | [15] 0.077 | [16] -0.019

NAA20 (UniProt P61599)
inactive: erlotinib 0.003 | [1] 0.006 | [2] -0.07 | [3] 0.06 | [4] -0.074 | [5] -0.023 | [6] -0.037 | [7] -0.046 | [8] 0.017 | IRAK-1-4 Inhibitor I -0.009 | ibrutinib 0.028 | [9] -0.042 | ralimetinib 0.037 | [10] 0.004 | [11] -0.019 | [12] -0.007 | [13] -0.01 | [14] -0.03 | [15] 0.002 | [16] 0.016

NANP (UniProt Q8TBE9)
inactive: erlotinib -0.113 | [1] 0.006 | [2] -0.099 | [3] -0.046 | [4] -0.001 | [5] -0.004 | [6] 0.028 | [7] -0.021 | [8] -0.052 | IRAK-1-4 Inhibitor I -0.003 | ibrutinib 0.032 | [9] 0.169 | ralimetinib 0.046 | [10] 0.002 | [11] -0.063 | [12] -0.008 | [13] 0.005 | [14] -0.017 | [15] -0.018 | [16] 0.019

NCDN isoform 3 (UniProt Q9UBB6)
inactive: erlotinib 0.031 | [1] -0.033 | [2] 0.035 | [3] -0.01 | [4] 0.007 | [5] -0.012 | [6] -0.087 | [7] -0.003 | [8] -0.021 | IRAK-1-4 Inhibitor I -0.005 | ibrutinib -0.035 | [9] 0.008 | ralimetinib 0.021 | [10] -0.033 | [11] -0.03 | [12] -0.016 | [13] -0.017 | [14] -0.029 | [15] 0.021 | [16] -0.003

N4BP2 (UniProt Q86UW6)
inactive: erlotinib 0.04 | [1] -0.029 | [2] -0.09 | [3] 0.069 | [4] -0.015 | [5] 0.001 | [6] 0.106 | [7] -0.021 | [8] -0.068 | IRAK-1-4 Inhibitor I -0.022 | ibrutinib 0.094 | [9] -0.041 | ralimetinib 0.038 | [10] -0.053 | [11] 0.047 | [12] 0.03 | [13] -0.011 | [14] -0.005 | [15] -0.034 | [16] -0.027

MYO1D (UniProt O94832)
inactive: erlotinib 0.01 | [1] -0.064 | [2] -0.022 | [3] 0.004 | [4] 0.006 | [5] 0.01 | [6] -0.083 | [7] 0.015 | [8] 0.031 | IRAK-1-4 Inhibitor I -0.027 | ibrutinib -0.016 | [9] -0.012 | ralimetinib 0.04 | [10] 0.003 | [11] 0.018 | [12] -0.021 | [13] -0.009 | [14] -0.014 | [15] 0.01 | [16] 0.031

NCSTN (UniProt Q92542)
inactive: erlotinib -0.03 | [1] -0.16 | [2] 0.02 | [3] -0.01 | [4] -0.034 | [5] -0.029 | [6] -0.042 | [7] -0.028 | [8] 0.038 | IRAK-1-4 Inhibitor I 0.037 | ibrutinib 0.05 | [9] -0.069 | ralimetinib 0.038 | [10] -0.06 | [11] -0.011 | [12] -0.014 | [13] -0.08 | [14] 0.016 | [15] -0.006 | [16] 0.032

NCK2 (UniProt O43639)
inactive: erlotinib -0.007 | [1] 0.023 | [2] 0.014 | [3] -0.027 | [4] -0.084 | [5] 0.005 | [6] -0.043 | [7] -0.075 | [8] -0.026 | IRAK-1-4 Inhibitor I -0.015 | ibrutinib 0.081 | [9] 0.021 | ralimetinib 0.089 | [10] 0.03 | [11] -0.022 | [12] 0.045 | [13] 0.098 | [14] -0.036 | [15] -0.051 | [16] 0.002

NAP1L1 (UniProt P55209)
inactive: erlotinib -0.013 | [1] -0.024 | [2] 0.02 | [3] 0.007 | [4] -0.04 | [5] 0.002 | [6] 0.007 | [7] -0.003 | [8] -0.008 | IRAK-1-4 Inhibitor I -0.005 | ibrutinib 0.048 | [9] 0.022 | ralimetinib -0.019 | [10] -0.005 | [11] -0.007 | [12] -0.041 | [13] -0.01 | [14] 0.018 | [15] 0 | [16] -0.046

MYL6 (UniProt P60660)
inactive: erlotinib 0 | [1] 0.013 | [2] 0.001 | [3] 0.044 | [4] -0.05 | [5] -0.015 | [6] -0.003 | [7] 0.044 | [8] 0.023 | IRAK-1-4 Inhibitor I 0.02 | ibrutinib 0.067 | [9] -0.045 | ralimetinib 0.008 | [10] -0.045 | [11] 0.007 | [12] -0.043 | [13] 0.029 | [14] 0.038 | [15] 0.021 | [16] 0.006

NAXE (UniProt Q8NCW5)
inactive: erlotinib -0.028 | [1] -0.03 | [2] -0.005 | [3] 0.012 | [4] -0.038 | [5] 0.011 | [6] 0.038 | [7] -0.021 | [8] 0.046 | IRAK-1-4 Inhibitor I 0.019 | ibrutinib 0.047 | [9] 0.016 | ralimetinib 0.011 | [10] -0.011 | [11] -0.016 | [12] -0.031 | [13] -0.012 | [14] 0.011 | [15] -0.03 | [16] 0.023

NACA4P (UniProt Q9BZK3)
inactive: erlotinib -0.204 | [1] -0.024 | [2] 0.046 | [3] 0.042 | [4] -0.195 | [5] -0.023 | [6] 0.046 | [7] 0.031 | [8] -0.09 | IRAK-1-4 Inhibitor I -0.007 | ibrutinib 0.115 | [9] 0.046 | ralimetinib 0.037 | [10] -0.09 | [11] 0.06 | [12] 0.053 | [13] -0.011 | [14] 0.043 | [15] 0.003 | [16] 0.004
